Measured values taken from the supplement of paper PMC4604168 (melanoma cell lines).
The list shows a part of the results. Repeats are few or missing, and single values can be far off.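 The apoptosis fraction was the count of cleaved-PARP antibody-stained nuclei relative to all DNA-stained nuclei, imaged in 1,536-well plates. Screening doses were set so most cells survived, and baseline and induced cleaved-PARP levels vary greatly across cell lines.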

Columns and labels:
Assay in all cases: cleaved PARP positive nuclei fraction relative to DMSO control; melanoma cells; higher = more apoptosis
Conditions in all cases: library dose: low library concentration; 72 h
501Mel = test system: 501Mel
A101D = test system: A101D
A2058 = test system: A2058
A375 = test system: A375
C32 = test system: C32
CBRC013 = test system: CBRC013 (line from a melanoma biopsy)
CBRC014 = test system: CBRC014 (line from a melanoma biopsy)
CBRC016 = test system: CBRC016 (line from a melanoma biopsy)
CBRC017 = test system: CBRC017 (line from a melanoma biopsy)

Row | Structure (SMILES) | cleaved PARP positive nuclei fraction (501Mel) [%] | cleaved PARP positive nuclei fraction (A101D) [%] | cleaved PARP positive nuclei fraction (A2058) [%] | cleaved PARP positive nuclei fraction (A375) [%] | cleaved PARP positive nuclei fraction (C32) [%] | cleaved PARP positive nuclei fraction (CBRC013) [%] | cleaved PARP positive nuclei fraction (CBRC014) [%] | cleaved PARP positive nuclei fraction (CBRC016) [%] | cleaved PARP positive nuclei fraction (CBRC017) [%]
1 | COc1ccc(COc2ccc(Cc3cnc(N)nc3N)cc2OC)cc1 + O=S(=O)(c1ccccc1)N(CC(F)(F)F)c1ccc(C(O)(C(F)(F)F)C(F)(F)F)cc1 [T0901317] (first compound 1 µM, partner dose 1.4 µM) | 84.6 | 55.2 | 126 | 127 | 29.7 | 129 | 87.8 | 18 | 126
2 | O=C(O)C(=O)Nc1sc2c(c1C(=O)O)CCNC2 + Cn1cc(/C=C2\C(=O)Nc3cccnc32)c2ccccc21 [GW441756] (first compound 1.66667 µM, partner dose 0.4 µM) | 74.6 | 244 | 111 | 93.7 | 177 | 49.9 | 74.8 | 58.9 | 34.9
3 | CCc1ccc(CCOc2ccc(CC3SC(=O)NC3=O)cc2)nc1 (stereo not drawn) [pioglitazone] + N#Cc1c(O)c2c(-c3ccc(-c4ccccc4O)cc3)csc2[nH]c1=O [A769662] (first compound 2 µM, partner dose 2 µM) | 74.6 | 53.2 | 120 | 70.6 | 78.6 | 345 | 127 | 89.4 | 150
4 | CCc1ccc(CCOc2ccc(CC3SC(=O)NC3=O)cc2)nc1 (stereo not drawn) [pioglitazone] + CCCCCCCCCCCC1=C(O)C(=O)C=C(O)C1=O [Embelin] (first compound 2 µM, partner dose 1.2 µM) | 49.9 | 101 | 66.4 | 93.3 | 59.9 | 132 | 90 | 53.9 | 96.5
5 | CN(NC(=O)CC(=O)NN(C)C(=S)c1ccccc1)C(=S)c1ccccc1 + O=C1NC(=O)/C(=C/c2ccc(-c3ccc(F)cc3O)o2)S1 [AS252424] (first compound 0.006 µM, partner dose 1 µM) | 190 | 140 | 120 | 1180 | 228 | 163 | 581 | 127 | 104
6 | COc1cc2c(Oc3ccc4[nH]c(C)cc4c3F)ncnc2cc1OCCCN1CCCC1 [cediranib] + CCCCCCCCCCCC1=C(O)C(=O)C=C(O)C1=O [Embelin] (first compound 0.4 µM, partner dose 1.2 µM) | 83.9 | 169 | 127 | 106 | 188 | 58.9 | 81.2 | 60.6 | 139
7 | COc1ccc2c(c1)CCC1C2CCC2(C)C(NCCCCCCN3C(=O)C=CC3=O)CCC12 (stereo not drawn) + CCCCCCCCCCCC1=C(O)C(=O)C=C(O)C1=O [Embelin] (first compound 0.4 µM, partner dose 1.2 µM) | 69.8 | 86.6 | 86.2 | 63.3 | 114 | 196 | 95.1 | 55.2 | 53
8 | CCc1ccc(CCOc2ccc(CC3SC(=O)NC3=O)cc2)nc1 (stereo not drawn) [pioglitazone] + CC(C)CCN1c2nc(Nc3cc(F)c(O)c(F)c3)ncc2N(C)C(=O)C1C [BID1870] (first compound 2 µM, partner dose 0.2 µM) | 67.4 | 195 | 133 | 202 | 135 | 50.5 | 129 | 131 | 119
9 | NCC(=O)Nc1ccc(-n2nc(C(F)(F)F)cc2-c2ccc3c(ccc4ccccc43)c2)cc1 + COc1ccc(COc2ccc(Cc3cnc(N)nc3N)cc2OC)cc1 [GW2580] (first compound 1 µM, partner dose 1 µM) | 141 | 171 | 134 | 7250 | 48.3 | 183 | 95.3 | 75.5 | 75.8
10 | CN(NC(=O)CC(=O)NN(C)C(=S)c1ccccc1)C(=S)c1ccccc1 + CCc1ccc(CCOc2ccc(CC3SC(=O)NC3=O)cc2)nc1 [pioglitazone] (first compound 0.006 µM, partner dose 2 µM) | 316 | 212 | 107 | 685 | 586 | 22.4 | 972 | 101 | 163
11 | COc1cc2ncnc(Nc3ccc(Oc4ccccc4)cc3)c2cc1OC + Cc1cc([N+](=O)[O-])ccc1NS(=O)(=O)c1cc(Cl)ccc1Cl [FH535] (first compound 2 µM, partner dose 1 µM) | 48.8 | 240 | 116 | 69.1 | 142 | 330 | 132 | 1680 | 393
12 | Oc1nc(-c2ccc(C(F)(F)F)cc2)nc2c1CSCC2 + CCCCCCCCCCCC1=C(O)C(=O)C=C(O)C1=O [Embelin] (first compound 2 µM, partner dose 1.2 µM) | 72.4 | 428 | 110 | 144 | 127 | 96.2 | 90.2 | 80.2 | 106
